At least one compound was matched to its structure with a doubt left.
System: pNSCs
Test: Caudalization / motor neuron differentiation of pNSCs
Assay type: cell-based, human
Details: real-time PCR, 1 μM RA, 1 wk

How did the “expression of HoxB4, HoxA5, HoxC5” value turn out when CC1=C(/C=C/C(C)=C/C=C/C(C)=C/C(=O)O)C(C)(C)CCC1 [RA, retinoic acid] was run?
The value was “significant induction of posterior genes”.

Reference: US8883502B2, “Expandable cell source of neuronal stem cell populations and methods for obtaining and using them” (The Regents of the University of California, priority 2010, dated 2014)
